PMC9140068, “Generation of HepG2 Cells with High Expression of Multiple Drug-Metabolizing Enzymes for Drug Discovery Research Using a PITCh System” (Cells, 2022)

System: CYPs–UGT1A1 KI-HepG2 cells
Method: The HepG2 cells were seeded in 96-well plates at 1.0 × 10^4 cells/well. […] After 24 h, to examine the cell viability, we performed a WST-8 (2-(2-methoxy-4-nitrophenyl)-3-(4-nitrophenyl)-5-(2,4-disulfophenyl)-2H-tetrazolium, monosodium salt) assay by using Cell Count Reagent SF according to the manufacturer’s instructions. The cell viability was calculated as the percentage of that in the cells treated with a vehicle only.
After 24 h, cell viability was examined by WST-8 assay. The cell viability was calculated as a percentage of the number of cells after treatment with a solvent only. The results shown are means ± SD of three technical replicates.

`CCCCc1oc2ccccc2c1C(=O)c1cc(I)c(OCCN(CC)CC)c(I)c1` [amiodarone] was tested, and the “Cell viability of CYPs–UGT1A1 KI-HepG2 cells compared with WT-HepG2 cells” value was “lower”.
